From patent US20040242565A1, “Medicinal composition for prevention of or treatment for cerebrovascular disorder and cardiopathy” (priority 2001, published 2004)
At least one structure is not confirmed: it was looked up by name or label, or the drawing left a doubt.

Test system: Dog Delayed Cerebral Vasospasm Model
Assay: Effect on dog delayed cerebral vasospasm model (basilar artery diameter by angiography)
Assay type: in vivo
Settings: 0.1 mg/kg or 1 mg/kg i.v., separate administration
Method: An adult mongrel dog was anesthetized with pentobarbital and 5 ml of autologous blood was injected into cisterna magna (on the first day). On the third day, 5 ml of autologous blood was injected into cisterna magna under thiamyral anesthesia. Before the injection of autologous blood on the first day and on the seventh day, angiographin was injected into vertebral artery, followed by photographing blood vessel of basilar artery. […] As a control, physiological saline was administered into vein over 30 minutes continuously. After the administration of each drug, the blood vessel was photographed to measure the diameter of basilar artery.

COCCOC(=O)C1=C(C)NC(C)=C(C(=O)OC(C)C)C1c1cccc([N+](=O)[O-])c1 (stereo not shown) [Nimodipine, nimodipine]
vasospasm improving effect: not improved
